In PubChem BioAssay AID2685 (National Center for Advancing Translational Sciences (NCATS), 2010):
Out of some 320,000 compounds screened, about 2,100 (0.66%) were called active. Inconclusive results, whose numbers are uncertain, are shown with a selection of clear calls. Calls follow the shape of the dose curve; as a rule, active = well fitted inhibition curve with a large enough effect in the signal ratio, with a control signal flat (not every such curve was filed as active); inconclusive = small, poorly fitted or top-dose-only effect, or effect the other way, or a change in a side signal; inactive = flat fitted curve, though single readings scatter; the % refers to the signal ratio. A potency beside an inconclusive call is a rough fit, not a confirmed value.
% is scaled to controls: 0 for no effect and ±100 for the full control effect; potency is read from the fitted curve at half-maximal effect.

Assay: qHTS Assay for Lipid Storage Modulators in Drosophila S3 Cells
Details: BODIPY lipid droplet fluorescence, 18-24 h, cells fed with added oleic acid; lipid storage change, negative = inhibition: at 46.1 µM (top of the series) unless noted
Summary of the method: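 Drosophila S3 cells loaded with oleic acid (400 uM, as added) and compounds at several concentrations; lipid droplets imaged by 488-nm laser-scanning cytometry, 500–530 nm intensity and object ratio to cell channel. Percent activity normalized to 20 uM Triacsin C.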
In the case of `COc1cccc(C2CC(c3cccs3)=NN2C(=S)Nc2ccccc2)c1OC` (configuration not stated), the lipid storage change, negative = inhibition is reported as inconclusive: -59.4%. In the case of `Cc1cc(C)n(Cc2ccc(Cl)nc2)n1`, the lipid storage change, negative = inhibition is reported as inconclusive: -15.8%. In the case of `CCN1CCN(Cc2ccc(NC(=O)c3cc(NC(=O)c4ccno4)cc(OC)c3)cc2C(F)(F)F)CC1`, the lipid storage change, negative = inhibition is reported as inconclusive: -1.1%. For `O=C(CSc1nnc(COc2ccc(Cl)cc2)n1Cc1ccco1)N1CCNC1=O`, the Potency was inconclusive: 0.291 µM [falling, partial curve, poor fit]. In the case of `CC1(C)CC(=O)C2=C(C1)Nc1cc(C(=O)c3ccccc3)ccc1NC2c1ccccn1` (configuration not stated), the Potency is reported as inconclusive: 20.6 µM [falling, single point]. In the case of `COc1ccc(C(=O)CSc2nnc(NC(=O)C3CC(=O)N(c4cccc(OC)c4)C3)s2)cc1` (configuration not stated), the Potency is reported as inconclusive: 0.0052 µM [falling, full curve, poor fit]. In the case of `COc1ccc(-c2nn(-c3ccccc3)cc2/C=N/N=C(N)N)cc1OC`, the lipid storage change, negative = inhibition is reported as inconclusive: 12.8%. With `O=C(O)C1CCN(C(=O)c2ccco2)CC1` the lipid storage change, negative = inhibition was inconclusive: 42.8%. In the case of `Oc1c(Br)cc(Br)cc1CNc1ccccn1`, the lipid storage change, negative = inhibition is reported as inconclusive: 39.9%. For `COc1cccc(-c2nc(S(=O)(=O)c3ccccc3)c(N3CCOCC3)o2)c1`, the lipid storage change, negative = inhibition was inconclusive: 50.8%. In the case of `Cc1nc(SCC(O)CO)c([N+](=O)[O-])[nH]1` (configuration not stated), the lipid storage change, negative = inhibition is reported as inconclusive: 1.82%. In the case of `O=C(COC(=O)c1cccnc1Cl)NCCC1=CCCCC1`, the lipid storage change, negative = inhibition is reported as inconclusive: 11.7%. In the case of `CCN(CC)c1ccc(C(=O)NNC(=O)CCNC(=O)c2ccccc2)cc1`, the Potency is reported as inconclusive: 0.164 µM [falling, full curve, poor fit]. For `O=C(Cn1cc(C(=O)COc2ccccc2)c2ccccc21)NCc1ccco1`, the Potency was inconclusive: 0.82 µM [activator, partial curve, poor fit]. For `Cc1onc(-c2ccccc2)c1C(=O)N1CCN(S(=O)(=O)c2ccc(OC(F)(F)F)cc2)CC1`, the lipid storage change, negative = inhibition was inconclusive: 4.74%. With `CCn1nnnc1SCC(=O)Nc1cc(OC)cc(OC)c1` the lipid storage change, negative = inhibition was inconclusive: 22.2%. In the case of `CC1(C)CC(NC(=O)Cc2ccccc2)CC(C)(C)N1`, the lipid storage change, negative = inhibition is reported as inconclusive: 28.6%. In the case of `CC(C)=CCCC(C)CN1CCC(n2nccc2NC(=O)C2CCCC2)CC1` (configuration not stated), the lipid storage change, negative = inhibition is reported as inconclusive: -13.8%. With `O=C(COc1ccc(/C=N/NC(=O)c2cc3ccccc3o2)cc1Br)Nc1ccccc1` the Potency was inconclusive: 25.9 µM [falling, single point]. In the case of `CCN(CC)S(=O)(=O)c1ccc(NC2=NS(=O)(=O)c3ccccc32)cc1`, the lipid storage change, negative = inhibition is reported as inconclusive: 172%. For `CC1(c2ccc(OC(F)F)cc2)NC(=O)N(CC(=O)Nc2ccc(N3CCCCC3)cc2)C1=O` (configuration not stated), the Potency was inconclusive: 10.3 µM [activator, partial curve, poor fit]. For `CCOc1ccc(-c2ccc(NS(=O)(=O)c3ccc([N+](=O)[O-])cc3)cc2)nn1`, the “outcome” value was “inactive [at 46.1 µM]”. With `CCc1c(C)nc(SCC(=O)N2CCCCC2)[nH]c1=O` the Potency was inconclusive: 2.06 µM [activator, partial curve]. With `CCNC(=S)Nc1cc(-c2ccc(Cl)cc2)[nH]n1` the lipid storage change, negative = inhibition was inconclusive: 8.92%. With `CC1=C(C(=O)Nc2cc(C)ccn2)C(c2ccc(C)cc2)C2=C(CCCC2=O)N1` (configuration not stated) the lipid storage change, negative = inhibition was inconclusive: 32.5%. For `CCOC(=O)N1CCN(c2c(NCc3ccc(Cl)cc3)c(=O)c2=O)CC1`, the Potency was inconclusive: 20.6 µM [falling, partial curve, poor fit]. With `O=c1[nH]c(C(Cl)Cl)nc2sc3c(c12)CCN(Cc1ccccc1)C3` the lipid storage change, negative = inhibition was inconclusive: 1.07%. With `Cc1ccc2c(c1)c1c(n2CC(O)CNC2CCCC2)CCCC1` (configuration not stated) the lipid storage change, negative = inhibition was inconclusive: -0.734%. For `CC(C)(O)[C@H](O)COc1c2ccoc2cc2oc(=O)ccc12`, the lipid storage change, negative = inhibition was inconclusive: -1.42%. In the case of `Cc1cc2ccccc2c(=O)n1CC(=O)NCC(=O)N1CCN(c2ccccc2)CC1`, the lipid storage change, negative = inhibition is reported as inconclusive: -37%. In the case of `N#Cc1c(N)n(CCOC(=O)c2cccc(Br)c2)c2nc3ccccc3nc12`, the lipid storage change, negative = inhibition is reported as inconclusive: 11.1%. In the case of `C=C(C)C(=O)Nc1nnc(-c2cccs2)s1`, the Potency is reported as inconclusive: 32.6 µM [cytotoxic, single point]. With `CCOc1ccccc1C(=O)N/N=C/c1coc2ccc(Cl)cc2c1=O` the Potency was inconclusive: 32.6 µM [falling, partial curve, poor fit]. With `O=C(NCC1CCCO1)c1ccccc1-c1nc(-c2ccc(Cl)cc2)no1` (configuration not stated) the Potency was inconclusive: 5.8 µM [activator, single point]. In the case of `NS(=O)(=O)c1ccc(NC(=O)COC(=O)C2CC(=O)N(Cc3ccccc3)C2)cc1` (configuration not stated), the lipid storage change, negative = inhibition is reported as inconclusive: 59.3%. With `Cc1ccc(/C=N/n2nnnc2N)cc1[N+](=O)[O-]` the lipid storage change, negative = inhibition was inconclusive: -2.43%. With `COc1ccccc1NC(=O)C(C)NC(c1ccccc1)c1ccccc1` (configuration not stated) the lipid storage change, negative = inhibition was inconclusive: 19.9%.
